Values of other authors in US8916543B1 (priority 2009, dated 2014).
At least one compound was matched to its structure with a doubt left.

Chains of the proteins cited; added tags and fusions are not shown. Residues count along the entry.
UniProt P09616, 27-319 limits assumed: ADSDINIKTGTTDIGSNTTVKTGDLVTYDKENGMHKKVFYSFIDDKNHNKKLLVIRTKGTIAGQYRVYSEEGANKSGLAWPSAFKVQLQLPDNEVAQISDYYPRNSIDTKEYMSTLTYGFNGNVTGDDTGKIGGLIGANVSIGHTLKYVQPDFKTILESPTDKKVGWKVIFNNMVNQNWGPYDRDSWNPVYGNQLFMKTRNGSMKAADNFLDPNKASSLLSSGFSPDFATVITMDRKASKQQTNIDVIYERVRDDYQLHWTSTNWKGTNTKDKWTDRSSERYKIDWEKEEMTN

Biological target: α-toxin (Staphylococcus aureus, UniProt P09616)
Settings: cited from earlier work

## C[C@H]1C[C@@H]2[C@H]([C@@H](O)C[C@@]3(C)[C@H]2CC[C@]3(O)C(=O)CO)[C@@]2(C)C=CC(=O)C=C12 [methylprednisolone]
  inhibition of α-toxin activity: weakly inhibited
